PubChem BioAssay AID504774, Drosophila RNAi Screening Center | 2011

Screen: 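Knock-downs that shift viability of MMS-exposed cells relative to untreated ones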 (primary screen)
Cells: Drosophila Kc167 cells
Knock-down reagent: long dsRNA against Drosophila genes, about 0.25 µg dsRNA per well
Time to read-out: about 6 days: 3 days knock-down, then 3 days with or without MMS
Conditions: methyl methanesulphonate 0.004% (w/v) for 3 days after knock-down
Measurement: 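Viability in wells given MMS, read as ATP luminescence, normalised by quantiles plate by plate and averaged across replicates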
Scale: mean viability with MMS and viability with MMS: higher = more surviving cells after MMS
The deposit covers about 23,000 reagents; shown is a random part of those with a known target gene and a result. 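Values are quantile-normalised luminescence on an arbitrary scale; higher means more cells surviving MMS.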 Names joined by + are all predicted targets of the reagent. Reagent sequences are not shown.

target,DRSC id,mean viability with MMS,"viability with MMS, replicate 1","viability with MMS, replicate 2"
eEF1delta,DRSC02790,3.64e6,4.38e6,3.90e6
CG9016,DRSC03127,3.58e6,4.01e6,4.08e6
fru,DRSC16951,2.95e6,3.62e6,3.60e6
fru,DRSC16952,3.80e6,3.55e6,3.54e6
fru,DRSC16953,3.62e6,3.99e6,3.93e6
fru,DRSC21600,3.33e6,3.85e6,3.81e6
Nsun5,DRSC15835,3.49e6,3.98e6,3.94e6
CG10516,DRSC09738,3.72e6,4.16e6,4.21e6
galene,DRSC08640,3.58e6,4.01e6,4.09e6
galene,DRSC08641,3.70e6,4.11e6,4.20e6
CG30427,DRSC04014,3.62e6,4.11e6,4.11e6
CG30427,DRSC04311,3.54e6,4.01e6,3.89e6
CG30427,DRSC04323,3.11e6,3.46e6,3.57e6
l(1)sc,DRSC18789,3.54e6,3.88e6,4.14e6
CG12107,DRSC06102,3.48e6,4.06e6,3.80e6
insc,DRSC04695,3.58e6,4.06e6,4.07e6
CG6923,DRSC16136,3.75e6,4.22e6,4.29e6
Mekk1,DRSC16302,3.59e6,3.93e6,4.20e6
Mekk1,DRSC16303,3.43e6,3.86e6,3.94e6
CG13033,DRSC09913,3.63e6,3.90e6,4.30e6
Hmr,DRSC17740,3.61e6,4.14e6,4.01e6
CG42450,DRSC20022,3.50e6,4.08e6,3.88e6
CG42450,DRSC22751,3.43e6,3.94e6,3.91e6
Pde11,DRSC02028,1.79e6,3.91e6,
Pde11,DRSC02460,3.69e6,4.02e6,4.30e6
CG14221,DRSC19578,3.54e6,4.03e6,4.00e6
Spn42De,DRSC05011,3.76e6,4.23e6,4.12e6
CG9391,DRSC11858,3.50e6,4.03e6,3.89e6
CG14764,DRSC05072,3.63e6,4.13e6,4.12e6
CG14764,DRSC06498,3.61e6,4.06e6,4.14e6
CG14764,DRSC06844,3.74e6,4.27e6,4.06e6

The list goes on; the last 9 above are carried over.
target,DRSC id,mean viability with MMS,"viability with MMS, replicate 1","viability with MMS, replicate 2"
CG42450,DRSC22751,3.43e6,3.94e6,3.91e6
Pde11,DRSC02028,1.79e6,3.91e6,
Pde11,DRSC02460,3.69e6,4.02e6,4.30e6
CG14221,DRSC19578,3.54e6,4.03e6,4.00e6
Spn42De,DRSC05011,3.76e6,4.23e6,4.12e6
CG9391,DRSC11858,3.50e6,4.03e6,3.89e6
CG14764,DRSC05072,3.63e6,4.13e6,4.12e6
CG14764,DRSC06498,3.61e6,4.06e6,4.14e6
CG14764,DRSC06844,3.74e6,4.27e6,4.06e6
CG3270,DRSC04988,3.57e6,3.93e6,4.09e6
CG14333 (retired record),DRSC14812,3.54e6,3.95e6,4.08e6
CG14333 (retired record),DRSC15769,3.83e6,4.42e6,4.13e6
CG18249,DRSC15318,3.61e6,4.15e6,4.07e6
CG34160,DRSC01131,3.60e6,3.96e6,4.18e6
RhoGAP71E,DRSC10232,3.44e6,3.82e6,3.97e6
RhoGAP71E,DRSC10837,3.20e6,3.65e6,3.64e6
RhoGAP71E,DRSC10838,3.59e6,4.01e6,4.14e6
Ssu72,DRSC19572,3.49e6,4.02e6,3.91e6
CG8757,DRSC11039,3.42e6,3.83e6,3.90e6
Cad99C,DRSC15050,3.60e6,4.07e6,4.10e6
Cad99C,DRSC16317,3.69e6,4.15e6,4.18e6
PGRP-LD + Pmi,DRSC10512,3.56e6,4.02e6,4.07e6
PGRP-LD + Pmi,DRSC10513,3.58e6,3.90e6,3.98e6
Ctu2,DRSC02024,3.53e6,3.93e6,4.09e6
CG42353 + CG42354,DRSC23154,3.57e6,4.00e6,4.11e6
MFS18,DRSC00452,3.70e6,4.20e6,4.24e6
Pkc98E,DRSC16791,3.48e6,4.00e6,3.90e6
Ankrd49,DRSC01894,3.47e6,3.90e6,3.97e6
CG13737,DRSC10064,3.38e6,3.73e6,3.87e6
Syt1,DRSC00156,3.55e6,3.98e6,4.09e6
Syt1,DRSC00157,3.55e6,3.96e6,4.10e6
Syt1,DRSC00158,3.43e6,3.78e6,4.04e6
Syt1,DRSC00840,3.63e6,4.11e6,4.14e6
Syt1,DRSC22077,3.72e6,4.20e6,4.15e6
I-t,DRSC16713,3.52e6,4.01e6,3.97e6
CG15905,DRSC06591,3.63e6,4.19e6,4.01e6
Not1,DRSC06787,3.44e6,3.92e6,3.90e6
Not1,DRSC06794,3.38e6,3.87e6,3.75e6
CG9915,DRSC21565,3.46e6,3.89e6,3.99e6
CG1703,DRSC19764,3.63e6,3.95e6,4.43e6
CG17298,DRSC15221,3.60e6,4.05e6,4.11e6
CG31245,DRSC15498,3.62e6,4.05e6,4.15e6
Gyf,DRSC17202,3.50e6,4.02e6,3.92e6
LanB2,DRSC11208,3.44e6,3.94e6,3.87e6
Parp1,DRSC07725,3.51e6,4.05e6,3.92e6
Parp1,DRSC07778,3.68e6,4.24e6,4.06e6
Parp1,DRSC07780,3.70e6,4.20e6,4.12e6
